# From the supplement of paper PMC8728848
# This is one part of the list.
# Columns and labels:
# Assay in all cases: glycan array binding signal (z-score within array); higher = stronger binding
# Settings in all cases: glycan notation: IUPAC condensed, linker removed
# [1] = target: GlcNAc(a1-6)Gal(b1-4)GlcNAc
# In short: (§1)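 Columns mapping to the same glycan were averaged after glycan names were converted to IUPAC-condensed notation. The data come from 3228 arrays in the Consortium for Functional Glycomics database, limited to those with an available protein sequence. Binding is reported as a within-array Z-score averaged across arrays of one protein sequence and across linkers.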
# [2] = target: GlcNAc(b1-2)Gal(b1-3)GalNAc
# In short: as §1
# [3] = target: GlcNAc(b1-2)Man(a1-3)[GlcNAc(b1-2)Man(a1-6)]Man(b1-4)GlcNAc(b1-4)GlcNAc
# In short: as §1
# [4] = target: GlcNAc(b1-2)Man(a1-3)[GlcNAc(b1-2)Man(a1-6)]Man(b1-4)GlcNAc(b1-4)[Fuc(a1-6)]GlcNAc
# In short: as §1
# [5] = target: GlcNAc(b1-2)Man(a1-3)[GlcNAc(b1-4)][GlcNAc(b1-2)Man(a1-6)]Man(b1-4)GlcNAc(b1-4)GlcNAc
# In short: as §1
# [6] = target: GlcNAc(b1-2)Man(a1-3)[GlcNAc(b1-4)][GlcNAc(b1-2)Man(a1-6)]Man(b1-4)GlcNAc(b1-4)[Fuc(a1-6)]GlcNAc
# In short: as §1
# [7] = target: GlcNAc(b1-2)[GlcNAc(b1-4)]Man(a1-3)[GlcNAc(b1-2)Man(a1-6)]Man(b1-4)GlcNAc(b1-4)GlcNAc
# In short: as §1
# [8] = target: GlcNAc(b1-2)[GlcNAc(b1-4)]Man(a1-3)[GlcNAc(b1-4)][GlcNAc(b1-2)Man(a1-6)]Man(b1-4)GlcNAc(b1-4)GlcNAc
# In short: as §1
# [9] = target: GlcNAc(b1-2)[GlcNAc(b1-4)]Man(a1-3)[GlcNAc(b1-4)][GlcNAc(b1-2)[GlcNAc(b1-6)]Man(a1-6)]Man(b1-4)GlcNAc(b1-4)GlcNAc
# In short: as §1
# [10] = target: GlcNAc(b1-2)[GlcNAc(b1-4)]Man(a1-3)[GlcNAc(b1-4)][GlcNAc(b1-2)[GlcNAc(b1-6)]Man(a1-6)]Man(b1-4)GlcNAc(b1-4)[Fuc(a1-6)]GlcNAc
# In short: as §1
# [11] = target: GlcNAc(b1-2)[GlcNAc(b1-6)]Man(a1-6)[GlcNAc(b1-2)Man(a1-3)]Man(b1-4)GlcNAc(b1-4)GlcNAc
# In short: as §1
# [12] = target: GlcNAc(b1-2)[GlcNAc(b1-6)]Man(a1-6)[GlcNAc(b1-2)Man(a1-3)]Man(b1-4)GlcNAc(b1-4)[Fuc(a1-6)]GlcNAc
# In short: as §1
# [13] = target: GlcNAc(b1-2)[GlcNAc(b1-6)]Man(a1-6)[GlcNAc(b1-4)][GlcNAc(b1-2)Man(a1-3)]Man(b1-4)GlcNAc(b1-4)GlcNAc
# In short: as §1
# GlcNAc(b1-3)Fuc = target: GlcNAc(b1-3)Fuc
# In short: as §1
# GlcNAc(b1-3)Gal = target: GlcNAc(b1-3)Gal
# In short: as §1
# [14] = target: GlcNAc(b1-3)Gal(b1-3)GalNAc
# In short: as §1
# GlcNAc(b1-3)Gal(b1-4)Glc = target: GlcNAc(b1-3)Gal(b1-4)Glc
# In short: as §1
# [15] = target: GlcNAc(b1-3)Gal(b1-4)GlcNAc
# In short: as §1
# [16] = target: GlcNAc(b1-3)Gal(b1-4)GlcNAc(b1-2)Man(a1-3)[GlcNAc(b1-3)Gal(b1-4)GlcNAc(b1-2)Man(a1-6)]Man(b1-4)GlcNAc(b1-4)GlcNAc
# In short: as §1
# [17] = target: GlcNAc(b1-3)Gal(b1-4)GlcNAc(b1-2)Man(a1-3)[GlcNAc(b1-3)Gal(b1-4)GlcNAc(b1-2)Man(a1-6)]Man(b1-4)GlcNAc(b1-4)[Fuc(a1-6)]GlcNAc
# In short: as §1
# [18] = target: GlcNAc(b1-3)Gal(b1-4)GlcNAc(b1-2)[GlcNAc(b1-3)Gal(b1-4)GlcNAc(b1-6)]Man(a1-6)[GlcNAc(b1-3)Gal(b1-4)GlcNAc(b1-2)Man(a1-3)]Man(b1-4)GlcNAc(b1-4)GlcNAc
# In short: as §1
# [19] = target: GlcNAc(b1-3)Gal(b1-4)GlcNAc(b1-3)Gal(b1-4)GlcNAc
# In short: as §1
# [20] = target: GlcNAc(b1-3)Gal(b1-4)GlcNAc(b1-3)Gal(b1-4)GlcNAc(b1-2)Man(a1-3)[GlcNAc(b1-3)Gal(b1-4)GlcNAc(b1-3)Gal(b1-4)GlcNAc(b1-2)Man(a1-6)]Man(b1-4)GlcNAc(b1-4)GlcNAc
# In short: as §1
# [21] = target: GlcNAc(b1-3)Gal(b1-4)GlcNAc(b1-3)Gal(b1-4)GlcNAc(b1-2)Man(a1-3)[GlcNAc(b1-3)Gal(b1-4)GlcNAc(b1-3)Gal(b1-4)GlcNAc(b1-2)Man(a1-6)]Man(b1-4)GlcNAc(b1-4)[Fuc(a1-6)]GlcNAc
# In short: as §1
# [22] = target: GlcNAc(b1-3)Gal(b1-4)GlcNAc(b1-3)Gal(b1-4)GlcNAc(b1-2)[GlcNAc(b1-3)Gal(b1-4)GlcNAc(b1-3)Gal(b1-4)GlcNAc(b1-6)]Man(a1-6)[GlcNAc(b1-3)Gal(b1-4)GlcNAc(b1-3)Gal(b1-4)GlcNAc(b1-2)Man(a1-3)]Man(b1-4)GlcNAc(b1-4)[Fuc(a1-6)]GlcNAc
# In short: as §1
# [23] = target: GlcNAc(b1-3)Gal(b1-4)GlcNAc(b1-3)Gal(b1-4)GlcNAc(b1-3)Gal(b1-4)GlcNAc(b1-2)Man(a1-3)[GlcNAc(b1-3)Gal(b1-4)GlcNAc(b1-3)Gal(b1-4)GlcNAc(b1-3)Gal(b1-4)GlcNAc(b1-2)Man(a1-6)]Man(b1-4)GlcNAc(b1-4)GlcNAc
# In short: as §1
# [24] = target: GlcNAc(b1-3)Gal(b1-4)GlcNAc(b1-3)Gal(b1-4)GlcNAc(b1-3)Gal(b1-4)GlcNAc(b1-2)Man(a1-3)[GlcNAc(b1-3)Gal(b1-4)GlcNAc(b1-3)Gal(b1-4)GlcNAc(b1-3)Gal(b1-4)GlcNAc(b1-2)Man(a1-6)]Man(b1-4)GlcNAc(b1-4)[Fuc(a1-6)]GlcNAc
# In short: as §1
# [25] = target: GlcNAc(b1-3)Gal(b1-4)GlcNAc(b1-3)Gal(b1-4)GlcNAc(b1-3)Gal(b1-4)GlcNAc(b1-2)[GlcNAc(b1-3)Gal(b1-4)GlcNAc(b1-3)Gal(b1-4)GlcNAc(b1-3)Gal(b1-4)GlcNAc(b1-6)]Man(a1-6)[GlcNAc(b1-3)Gal(b1-4)GlcNAc(b1-3)Gal(b1-4)GlcNAc(b1-3)Gal(b1-4)GlcNAc(b1-2)Man(a1-3)]Man(b1-4)GlcNAc(b1-4)[Fuc(a1-6)]GlcNAc
# In short: as §1
# [26] = target: GlcNAc(b1-3)Gal(b1-4)GlcNAc(b1-3)Gal(b1-4)GlcNAc(b1-3)Gal(b1-4)GlcNAc(b1-3)Gal(b1-4)GlcNAc(b1-2)Man(a1-3)[GlcNAc(b1-3)Gal(b1-4)GlcNAc(b1-3)Gal(b1-4)GlcNAc(b1-3)Gal(b1-4)GlcNAc(b1-3)Gal(b1-4)GlcNAc(b1-2)Man(a1-6)]Man(b1-4)GlcNAc(b1-4)GlcNAc
# In short: as §1
# [27] = target: GlcNAc(b1-3)Gal(b1-4)GlcNAc(b1-3)Gal(b1-4)GlcNAc(b1-3)Gal(b1-4)GlcNAc(b1-3)Gal(b1-4)GlcNAc(b1-2)Man(a1-3)[GlcNAc(b1-3)Gal(b1-4)GlcNAc(b1-3)Gal(b1-4)GlcNAc(b1-3)Gal(b1-4)GlcNAc(b1-3)Gal(b1-4)GlcNAc(b1-2)Man(a1-6)]Man(b1-4)GlcNAc(b1-4)[Fuc(a1-6)]GlcNAc
# In short: as §1
# [28] = target: GlcNAc(b1-3)Gal(b1-4)GlcNAc(b1-3)Gal(b1-4)GlcNAc(b1-3)Gal(b1-4)GlcNAc(b1-3)Gal(b1-4)GlcNAc(b1-2)[GlcNAc(b1-3)Gal(b1-4)GlcNAc(b1-3)Gal(b1-4)GlcNAc(b1-3)Gal(b1-4)GlcNAc(b1-3)Gal(b1-4)GlcNAc(b1-6)]Man(a1-6)[GlcNAc(b1-3)Gal(b1-4)GlcNAc(b1-3)Gal(b1-4)GlcNAc(b1-3)Gal(b1-4)GlcNAc(b1-3)Gal(b1-4)GlcNAc(b1-2)Man(a1-3)]Man(b1-4)GlcNAc(b1-4)[Fuc(a1-6)]GlcNAc
# In short: as §1
# [29] = target: GlcNAc(b1-3)Gal(b1-4)GlcNAc(b1-3)Gal(b1-4)GlcNAc(b1-3)GalNAc
# In short: as §1
# [30] = target: GlcNAc(b1-3)Gal(b1-4)GlcNAc(b1-3)GalNAc
# In short: as §1
# [31] = target: GlcNAc(b1-3)Gal(b1-4)GlcNAc(b1-3)[GlcNAc(b1-3)Gal(b1-4)GlcNAc(b1-3)]GalNAc
# In short: as §1
# [32] = target: GlcNAc(b1-3)Gal(b1-4)GlcNAc(b1-6)[Gal(b1-3)]GalNAc
# In short: as §1
# [33] = target: GlcNAc(b1-3)Gal(b1-4)GlcNAc(b1-6)[GlcNAc(b1-3)Gal(b1-3)]GalNAc
# In short: as §1
# [34] = target: GlcNAc(b1-3)Gal(b1-4)GlcNAc(b1-6)[GlcNAc(b1-3)]Gal(b1-4)GlcNAc
# In short: as §1
# GlcNAc(b1-3)GalNAc = target: GlcNAc(b1-3)GalNAc
# In short: as §1
# GlcNAc(b1-3)Man = target: GlcNAc(b1-3)Man
# In short: as §1
# [35] = target: GlcNAc(b1-3)[GlcNAc(b1-4)][GlcNAc(b1-6)]GlcNAc
# In short: as §1
# [36] = target: GlcNAc(b1-3)[GlcNAc(b1-6)]Gal(b1-4)GlcNAc
# In short: as §1
# [37] = target: GlcNAc(b1-3)[GlcNAc(b1-6)]GalNAc
# In short: as §1
# [38] = target: GlcNAc(b1-4)Gal(b1-4)GlcNAc
# In short: as §1
# GlcNAc(b1-4)GlcNAc = target: GlcNAc(b1-4)GlcNAc
# In short: as §1
# [39] = target: GlcNAc(b1-4)GlcNAc(b1-4)GlcNAc
# In short: as §1
binder,measurement,setting,value
"CD34 (Homo sapiens), P28906 (protein) MGSSHHHHHHSSGLVPRGSHMSTSLATSPTKPYTSSSPILSDIKAEIKCSGIREVKLTQGICLEQNKTSSCAEFKKDRGEGLARVLCGEEQADADAGAQVCSLLLAQSEVRPQCLLLVLANRTEISSKLQLMKKHQSDLKKLGILDFTEQDVASHQSYSQKT",glycan array binding signal (z-score),[1],-0.269
same,glycan array binding signal (z-score),[2],1.04
same,glycan array binding signal (z-score),[3],-0.07
same,glycan array binding signal (z-score),[4],0.901
same,glycan array binding signal (z-score),[5],-0.541
same,glycan array binding signal (z-score),[6],-0.832
same,glycan array binding signal (z-score),[7],-0.523
same,glycan array binding signal (z-score),[8],-0.524
same,glycan array binding signal (z-score),[9],-0.258
same,glycan array binding signal (z-score),[10],-0.488
same,glycan array binding signal (z-score),[11],-0.052
same,glycan array binding signal (z-score),[12],0.924
same,glycan array binding signal (z-score),[13],-0.731
same,glycan array binding signal (z-score),GlcNAc(b1-3)Fuc,-1.22
same,glycan array binding signal (z-score),GlcNAc(b1-3)Gal,-0.155
same,glycan array binding signal (z-score),[14],0.146
same,glycan array binding signal (z-score),GlcNAc(b1-3)Gal(b1-4)Glc,0.183
same,glycan array binding signal (z-score),[15],-0.319
same,glycan array binding signal (z-score),[16],-0.074
same,glycan array binding signal (z-score),[17],-0.026
same,glycan array binding signal (z-score),[18],-0.175
same,glycan array binding signal (z-score),[19],-0.666
same,glycan array binding signal (z-score),[20],0.842
same,glycan array binding signal (z-score),[21],0.264
same,glycan array binding signal (z-score),[22],0.954
same,glycan array binding signal (z-score),[23],0.192
same,glycan array binding signal (z-score),[24],-0.141
same,glycan array binding signal (z-score),[25],0.443
same,glycan array binding signal (z-score),[26],0.347
same,glycan array binding signal (z-score),[27],-0.827
same,glycan array binding signal (z-score),[28],1.54
same,glycan array binding signal (z-score),[29],-0.273
same,glycan array binding signal (z-score),[30],-0.037
same,glycan array binding signal (z-score),[31],0.396
same,glycan array binding signal (z-score),[32],0.216
same,glycan array binding signal (z-score),[33],0.516
same,glycan array binding signal (z-score),[34],-0.158
same,glycan array binding signal (z-score),GlcNAc(b1-3)GalNAc,-0.689
same,glycan array binding signal (z-score),GlcNAc(b1-3)Man,0.808
same,glycan array binding signal (z-score),[35],-0.998
same,glycan array binding signal (z-score),[36],-0.484
same,glycan array binding signal (z-score),[37],-0.655
same,glycan array binding signal (z-score),[38],0.073
same,glycan array binding signal (z-score),GlcNAc(b1-4)GlcNAc,-0.017
same,glycan array binding signal (z-score),[39],-0.507

# Retrieved one by one from above:
binder,measurement,setting,value
"CD34 (Homo sapiens), P28906 (protein) MGSSHHHHHHSSGLVPRGSHMSTSLATSPTKPYTSSSPILSDIKAEIKCSGIREVKLTQGICLEQNKTSSCAEFKKDRGEGLARVLCGEEQADADAGAQVCSLLLAQSEVRPQCLLLVLANRTEISSKLQLMKKHQSDLKKLGILDFTEQDVASHQSYSQKT",glycan array binding signal (z-score),GlcNAc(b1-3)Fuc,-1.22
same,glycan array binding signal (z-score),[22],0.954
